Assay results published in patent US9867372B2, “Tetrazolinone compound and use of same” (SUMITOMO CHEMICAL COMPANY, LIMITED, priority 2013, dated 2018).
Some of these results come from one statement about several compounds together.

Legend:
[1] = system: cucumber anthracnose fungus (Colletotrichum lagenarium); assay: cucumber anthracnose control test, foliar spray before inoculation; assay type: in vivo; conditions: 200 ppm, sprayed one day before inoculation (Test Example 19)
[2] = system: barley net blotch fungus (Pyrenophora teres); assay: barley net blotch control test, foliar spray before inoculation; assay type: in vivo; conditions: 500 ppm, sprayed 2 days before inoculation (Test Example 7)
[3] = system: kidney bean stem rot fungus (Sclerotinia sclerotiorum); assay: kidney bean stem rot control test, foliar spray before inoculation; conditions: 500 ppm, kidney bean (Test Example 9)
[4] = system: barley scald fungus (Rhynchosporium secalis); assay: barley scald control test, foliar spray before inoculation; assay type: in vivo; conditions: 200 ppm, sprayed 2 days before inoculation (Test Example 16)
[5] = system: wheat leaf blotch fungus (Septoria tritici); assay: wheat leaf blotch control test, foliar spray after inoculation; assay type: in vivo; conditions: 200 ppm, sprayed 3 days after inoculation (Test Example 13)
[6] = system: wheat leaf blotch fungus (Septoria tritici); assay: wheat leaf blotch control test, foliar spray 4 days before inoculation; assay type: in vivo
[7] = system: cucumber corynespora leaf spot fungus (Corynespora cassicola); assay: cucumber corynespora leaf spot control test, foliar spray before inoculation; assay type: in vivo; conditions: 200 ppm, sprayed one day before inoculation (Test Example 18)
[8] = 500 ppm, sprayed 4 days before inoculation (Test Example 11)
[9] = 200 ppm, sprayed 4 days before inoculation (Test Example 12)

Measured: area of lesion spots on the treated plant relative to that on an untreated plant

Cc1cccc(-n2nnn(C)c2=O)c1COc1cccc(-c2cccc(F)c2)n1 [compound 8]
≤ 30%: [1] | [2] | [3] | [4] | [5] | [6]; [8]

Cc1cccc(-n2nnn(C)c2=O)c1COc1cccc(C2=CCCCC2)n1 [compound 18]
≤ 30%: [1] | [2] | [3] | [6]; [8]

Cc1cccc(-n2nnn(C)c2=O)c1COc1cccc(-c2ccc(Br)cc2)n1 [compound 23]
≤ 30%: [1] | [7] | [4] | [5] | [6]; [8]

Cc1cccc(-n2nnn(C)c2=O)c1COc1cc(-c2ccccc2)ncn1 [compound 25]
≤ 30%: [7] | [6]; [8]

Cc1cccc(-n2nnn(C)c2=O)c1COc1cncc(-c2ccccc2)n1 [compound 27]
≤ 30%: [2] | [3] | [4] | [6]; [9]

COc1ccccc1-c1ccnc(OCc2c(C)cccc2-n2nnn(C)c2=O)c1 [compound 32]
≤ 30%: [7] | [4] | [6]; [9]

COc1ccc(-c2cccc(OCc3c(Cl)cccc3-n3nnn(C)c3=O)c2)cc1 [compound 41]
≤ 30%: [7]

COc1ccccc1-c1cccc(OCc2c(C)cccc2-n2nnn(C)c2=O)c1 [compound 52]
≤ 30%: [2] | [7] | [6]; [8]

COc1ccc(-c2cccc(OCc3c(C)cccc3-n3nnn(C)c3=O)n2)cc1F [compound 62]
≤ 30%: [1] | [7] | [4] | [6]; [8]

COc1ccc(-c2cccc(OCc3c(C)cccc3-n3nnn(C)c3=O)n2)c(F)c1 [compound 64]
≤ 30%: [7] | [4] | [6]; [8]

Cn1nnn(-c2cccc(C3CC3)c2COc2cccc(-c3ccc(F)cc3)n2)c1=O [compound 66]
≤ 30%: [7] | [4] | [5]

Cn1nnn(-c2cccc(Cl)c2COc2cccc(-c3ccc(F)cc3)n2)c1=O [compound 68]
≤ 30%: [7] | [4] | [5]

Cc1cccc(-n2nnn(C)c2=O)c1COc1cccc(-c2ccc(Oc3ccccc3)cc2)n1 [compound 72]
≤ 30%: [1] | [7] | [4] | [5] | [6]; [8]

Cc1cccc(-n2nnn(C)c2=O)c1COc1cncc(-c2ccc(F)cc2)c1 [compound 76]
≤ 30%: [7]

Cc1cccc(-n2nnn(C)c2=O)c1COc1cncc(-c2ccccc2)c1 [compound 78]
≤ 30%: [7] | [6]; [8]

Cc1cccc(-n2nnn(C)c2=O)c1COc1cncc(-c2ccc(Cl)cc2)c1 [compound 80]
≤ 30%: [2] | [7] | [6]; [9]

COc1ccc(-c2cc(OCc3c(C)cccc3-n3nnn(C)c3=O)ccn2)cc1 [compound 86]
≤ 30%: [7]

Cc1cccc(-n2nnn(C)c2=O)c1COc1ccnc(-c2ccccc2)n1 [compound 90]
≤ 30%: [2] | [3] | [4] | [6]; [8]

COc1ccc(-c2nccc(OCc3c(C)cccc3-n3nnn(C)c3=O)n2)cc1 [compound 92]
≤ 30%: [1] | [7] | [5]

COc1cccc(-c2cc(OCc3c(C)cccc3-n3nnn(C)c3=O)ccc2C)c1 [compound 116]
≤ 30%: [1] | [2] | [3] | [5] | [6]; [8]

COc1cccc(-c2cc(OCc3c(C)cccc3-n3nnn(C)c3=O)ccc2F)c1 [compound 149]
≤ 30%: [7] | [6]; [8]

Cc1cccc(-n2nnn(C)c2=O)c1COc1ccc(F)c(-c2ccc(Cl)cc2)c1 [compound 152]
≤ 30%: [1] | [7] | [4] | [6]; [8]

Cc1cccc(-n2nnn(C)c2=O)c1COc1cccc(-c2ccc3ncccc3c2)n1 [compound 158]
≤ 30%: [7] | [6]; [9]

Cc1cccc(-n2nnn(C)c2=O)c1COc1cccc(-c2ccccn2)c1 [compound 164, 1-methyl-4-[3-methyl-2-(3-pyridin-2-yl-phenoxymethyl)phenyl]-1,4-dihydrotetrazol-5-one]
≤ 30%: [2] | [3] | [4] | [6]; [8]

Cc1ccc(-c2cccc(OCc3c(C)cccc3-n3nnn(C)c3=O)n2)s1 [compound 176]
≤ 30%: [1] | [7]
